Reference: PubChem BioAssay AID1259302 (Sanger Institute, 2017)

- Test: 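Kinase knock-downs that raise cell killing by three anchor cancer drugs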 (follow-up of hits)
- Cell system: human SW1116 colorectal cancer cells
- Reagent: single siRNA against human genes
- Treatment: anchor drugs BYL719 at 1 µM, cetuximab at 5 µg/ml or trametinib at 10 nM, each compared with DMSO vehicle; exposure time not given
- Measured: 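Mean replicate viability as a ratio to pooled non-targeting control siRNA, plus per-drug synergy scores comparing siRNA with drug against each given on its own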
- Direction: synergy score with trametinib and synergy score with BYL719 and synergy score with cetuximab: higher = stronger synthetic lethal interaction with the drug; viability, siRNA with DMSO: higher = more viable cells
- Hit rule: 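An siRNA is called active if its synergy score is above 0.10 for at least one of BYL719, cetuximab or trametinib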
Here is a random part of 160 deposited reagents. In the full data, 122 (76%) got an active call. 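Most active calls come from the trametinib arm; viability under BYL719 or cetuximab treatment is not printed.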 Reagents against one gene are numbered here. No viability above 1 is reported: the scale is capped. Not all columns of the deposit are shown. Reagent sequences are not shown. Not given: the amount of reagent, the time to read-out.

| target gene | reagent | synergy score with trametinib | synergy score with BYL719 | synergy score with cetuximab | viability, siRNA with DMSO | outcome |
| --- | --- | --- | --- | --- | --- | --- |
| BMPR2 (GeneID 659) | 1 | -0.0505 | -0.107 | 0.0314 | 1 | inactive |
| BMPR2 (GeneID 659) | 2 | 0.267 | -0.0885 | 0.122 | 0.878 | active |
| BMPR2 (GeneID 659) | 3 | 0.146 | -0.0647 | 0.0953 | 0.901 | active |
| BMPR2 (GeneID 659) | 4 | 0.0508 | -0.0241 | -0.0697 | 1 | inactive |
| PINK1 (GeneID 65018) | 1 | 0.0432 | -0.124 | 0.0346 | 1 | inactive |
| PINK1 (GeneID 65018) | 2 | 0.256 | 0.033 | 0.12 | 0.858 | active |
| PINK1 (GeneID 65018) | 3 | 0.207 | 0.0107 | 0.151 | 0.725 | active |
| PINK1 (GeneID 65018) | 4 | 0.294 | 0.0364 | 0.0635 | 0.846 | active |
| CSNK2A2 (GeneID 1459) | 1 | 0.294 | 0.0136 | 0.0203 | 0.947 | active |
| CSNK2A2 (GeneID 1459) | 2 | 0.0686 | 0.0667 | 0.0507 | 0.361 | inactive |
| CSNK2A2 (GeneID 1459) | 3 | 0.303 | 0.0426 | 0.143 | 0.729 | active |
| CSNK2A2 (GeneID 1459) | 4 | 0.193 | -0.0293 | 0.105 | 0.507 | active |
| PRAG1 (GeneID 157285) | 1 | 0.268 | 0.00904 | 0.151 | 0.75 | active |
| PRAG1 (GeneID 157285) | 2 | 0.211 | 0.229 | 0.0641 | 0.831 | active |
| PRAG1 (GeneID 157285) | 3 | 0.086 | -0.0424 | 0.0979 | 0.972 | inactive |
| PRAG1 (GeneID 157285) | 4 | 0.0799 | -0.161 | 0.098 | 0.94 | inactive |
| HSPB8 (GeneID 26353) | 1 | 0.214 | -0.0907 | 0.0124 | 0.657 | active |
| HSPB8 (GeneID 26353) | 2 | 0.0794 | -0.0381 | 0.0611 | 1 | inactive |
| HSPB8 (GeneID 26353) | 3 | -0.00582 | -0.152 | -0.116 | 0.848 | inactive |
| HSPB8 (GeneID 26353) | 4 | 0.0831 | -0.14 | -0.307 | 0.796 | inactive |
| CDK6 (GeneID 1021) | 1 | 0.182 | -0.0967 | 0.166 | 0.917 | active |
| CDK6 (GeneID 1021) | 2 | 0.313 | -0.0484 | 0.167 | 0.694 | active |
| CDK6 (GeneID 1021) | 3 | 0.222 | -0.095 | 0.018 | 1 | active |
| CDK6 (GeneID 1021) | 4 | 0.295 | 0.00215 | 0.204 | 1 | active |
| MARK3 (GeneID 4140) | 1 | 0.0797 | -0.204 | -0.141 | 0.736 | inactive |
| MARK3 (GeneID 4140) | 2 | 0.132 | -0.152 | -0.114 | 0.839 | active |
| MARK3 (GeneID 4140) | 3 | 0.191 | -0.0464 | -0.00264 | 0.729 | active |
| MARK3 (GeneID 4140) | 4 | 0.249 | -0.193 | -0.0378 | 0.698 | active |
| CAMK2N1 (GeneID 55450) | 1 | -0.0265 | -0.0978 | -0.124 | 0.846 | inactive |
| CAMK2N1 (GeneID 55450) | 2 | 0.0558 | 0.165 | 0.0271 | 0.889 | active |
| CAMK2N1 (GeneID 55450) | 3 | 0.167 | -0.0341 | 0.0392 | 0.733 | active |
| CAMK2N1 (GeneID 55450) | 4 | -0.00923 | -0.141 | -0.066 | 0.373 | inactive |
| RPS6KA4 (GeneID 8986) | 1 | 0.176 | 0.0794 | 0.0588 | 0.785 | active |
| RPS6KA4 (GeneID 8986) | 2 | 0.156 | -0.0388 | 0.0368 | 0.945 | active |
| RPS6KA4 (GeneID 8986) | 3 | 0.157 | -0.0591 | 0.0391 | 0.808 | active |
| RPS6KA4 (GeneID 8986) | 4 | 0.0977 | -0.14 | -0.0185 | 0.803 | inactive |
| IKBKB (GeneID 3551) | 1 | 0.182 | -0.114 | -0.006 | 0.833 | active |
| IKBKB (GeneID 3551) | 2 | 0.0738 | -0.0446 | 0.0855 | 0.694 | inactive |
| IKBKB (GeneID 3551) | 3 | 0.0631 | 0.0136 | 0.144 | 0.89 | active |
| IKBKB (GeneID 3551) | 4 | 0.0428 | -0.0776 | -0.0388 | 0.799 | inactive |

Individual results from the entries so far:
IKBKB (GeneID 3551) #3, synergy score with cetuximab = 0.144
Under “synergy score with trametinib”, CDK6 (GeneID 1021) #3 has 0.222
Under “synergy score with cetuximab”, BMPR2 (GeneID 659) #1 shows 0.0314
Entry for HSPB8 (GeneID 26353) #4 under “synergy score with cetuximab”: -0.307

The results go on.
| target gene | reagent | synergy score with trametinib | synergy score with BYL719 | synergy score with cetuximab | viability, siRNA with DMSO | outcome |
| --- | --- | --- | --- | --- | --- | --- |
| SYNCRIP (GeneID 10492) | 1 | 0.248 | -0.185 | 0.0795 | 0.576 | active |
| SYNCRIP (GeneID 10492) | 2 | 0.139 | -0.105 | -0.0124 | 0.828 | active |
| SYNCRIP (GeneID 10492) | 3 | 0.199 | 0.037 | 0.28 | 0.691 | active |
| SYNCRIP (GeneID 10492) | 4 | 0.159 | -0.0036 | 0.0514 | 0.925 | active |
| SF3B1 (GeneID 23451) | 1 | -0.0403 | -0.117 | -0.0349 | 0.413 | inactive |
| SF3B1 (GeneID 23451) | 2 | 0.0519 | -0.0472 | 0.0219 | 0.359 | inactive |
| SF3B1 (GeneID 23451) | 3 | 0.105 | 0.0453 | 0.0372 | 0.72 | active |
| SF3B1 (GeneID 23451) | 4 | 0.00604 | -0.0994 | -0.0115 | 0.536 | inactive |
| PAK1 (GeneID 5058) | 1 | 0.22 | -0.115 | -0.0458 | 0.586 | active |
| PAK1 (GeneID 5058) | 2 | 0.129 | -0.121 | 0.0289 | 0.531 | active |
| PAK1 (GeneID 5058) | 3 | 0.215 | 0.0343 | 0.0285 | 0.615 | active |
| PAK1 (GeneID 5058) | 4 | 0.224 | -0.0171 | 0.0893 | 0.869 | active |
| PLK1 (GeneID 5347) | 1 | 0.109 | 0.0594 | 0.113 | 0.369 | active |
| PLK1 (GeneID 5347) | 2 | 0.0378 | -0.0802 | -0.000752 | 0.355 | inactive |
| PLK1 (GeneID 5347) | 3 | 0.103 | 0.0671 | 0.0966 | 0.391 | active |
| PLK1 (GeneID 5347) | 4 | 0.068 | -0.0355 | 0.0632 | 0.342 | inactive |
| IRAK3 (GeneID 11213) | 1 | 0.144 | -0.0279 | 0.115 | 0.579 | active |
| IRAK3 (GeneID 11213) | 2 | 0.291 | -0.155 | 0.136 | 0.821 | active |
| IRAK3 (GeneID 11213) | 3 | 0.0666 | -0.0325 | 0.191 | 0.815 | active |
| IRAK3 (GeneID 11213) | 4 | 0.118 | -0.17 | 0.02 | 0.877 | active |
| PFKFB3 (GeneID 5209) | 1 | 0.147 | -0.0924 | 0.0729 | 0.575 | active |
| PFKFB3 (GeneID 5209) | 2 | 0.149 | -0.0345 | 0.0688 | 0.45 | active |
| PFKFB3 (GeneID 5209) | 3 | 0.0621 | 0.0947 | -0.0464 | 0.797 | inactive |
| PFKFB3 (GeneID 5209) | 4 | 0.193 | 0.1 | 0.123 | 0.929 | active |
